Results as given in publication PMC13436964.

Chains of the proteins cited; added tags and fusions are not shown.
UniProt Q9Y265: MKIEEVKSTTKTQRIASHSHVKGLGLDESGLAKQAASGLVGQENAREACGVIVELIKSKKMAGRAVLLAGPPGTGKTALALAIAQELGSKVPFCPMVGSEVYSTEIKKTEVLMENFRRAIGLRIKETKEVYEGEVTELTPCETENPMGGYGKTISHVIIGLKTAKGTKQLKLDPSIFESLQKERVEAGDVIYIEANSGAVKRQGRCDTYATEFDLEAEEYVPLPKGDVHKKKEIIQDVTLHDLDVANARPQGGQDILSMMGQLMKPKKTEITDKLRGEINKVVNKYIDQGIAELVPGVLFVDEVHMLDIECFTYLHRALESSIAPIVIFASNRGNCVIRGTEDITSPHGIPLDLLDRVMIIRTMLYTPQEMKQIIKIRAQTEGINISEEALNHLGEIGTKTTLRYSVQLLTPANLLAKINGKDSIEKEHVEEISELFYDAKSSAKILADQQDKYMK

Target: T1, LMOD1-BirA*-FLAG (not stated (gene written Lmod1 as for mouse; key resources table lists the construct under 'Homo sapiens')) (UniProt Q8BVA4)
T1 sequence: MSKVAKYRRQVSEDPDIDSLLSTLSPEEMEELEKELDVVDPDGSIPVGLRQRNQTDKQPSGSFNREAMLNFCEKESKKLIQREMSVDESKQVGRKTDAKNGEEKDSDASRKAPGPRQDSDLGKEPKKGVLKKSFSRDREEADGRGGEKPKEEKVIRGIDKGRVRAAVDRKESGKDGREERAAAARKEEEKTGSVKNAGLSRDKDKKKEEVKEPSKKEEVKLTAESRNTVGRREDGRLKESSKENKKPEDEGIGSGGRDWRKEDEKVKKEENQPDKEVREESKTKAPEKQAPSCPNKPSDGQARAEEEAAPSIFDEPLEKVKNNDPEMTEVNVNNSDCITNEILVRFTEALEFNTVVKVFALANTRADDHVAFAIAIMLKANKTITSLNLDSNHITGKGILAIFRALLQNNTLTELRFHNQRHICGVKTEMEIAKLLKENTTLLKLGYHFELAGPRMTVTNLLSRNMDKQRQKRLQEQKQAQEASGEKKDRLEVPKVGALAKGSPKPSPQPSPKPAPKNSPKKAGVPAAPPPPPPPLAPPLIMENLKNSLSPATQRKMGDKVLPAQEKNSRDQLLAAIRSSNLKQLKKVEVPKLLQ
Experiment: proximity labelling; BioID in stable HEK293T Flp-In T-REx cells; BirA* fusion induced with 1 ug/mL tetracycline for 4 days, 50 uM biotin for 24 hr; streptavidin enrichment and DIA mass spectrometry; compared with BirA*-Ctrl and LMOD1-BirA* vs LMOD2-BirA*; n=4

binding: binds
Molecule: RuvB Like AAA ATPase 1 (RUVBL1), endogenous in HEK293T (from UniProt Q9Y265 1-456)

binding: binds
B1: sirtuin 2 (SIRT2), endogenous in HEK293T (protein, UniProt Q8IXJ6 1-389)
chain: MAEPDPSHPLETQAGKVQEAQDSDSDSEGGAAGGEADMDFLRNLFSQTLSLGSQKERLLDELTLEGVARYMQSERCRRVICLVGAGISTSAGIPDFRSPSTGLYDNLEKYHLPYPEAIFEISYFKKHPEPFFALAKELYPGQFKPTICHYFMRLLKDKGLLLRCYTQNIDTLERIAGLEQEDLVEAHGTFYTSHCVSASCRHEYPLSWMKEKIFSEVTPKCEDCQSLVKPDIVFFGESLPARFFSCMQSDFLKVDLLLVMGTSLQVQPFASLISKAPLSTPRLLINKEKAGQSDPFLGMIMGLGGGMDFDSKKAYRDVAWLGECDQGCLALAELLGWKKELEDLVRREHASIDAQSGAGVPNPSTSASPKKSPPPAKDEARTTEREKPQ

No constants are given. Whether binding was seen depends on the method and setting. Binding seen in cells or lysates may run through a third protein. These calls come from enrichment with a bait or labelling near it, and not all partners need be listed. Tags and fused reporters may be left off the sequences shown. Each block holds one molecule with its values, some of them ahead of it.
